Source: PubChem BioAssay AID1259415 (National Center for Advancing Translational Sciences (NCATS), 2018)
Among all 410,000 compounds or so, about 18,000 (4.4%) were called active. The inconclusive results got no clear call from the source; some entries with a clear call stand among them for comparison. No stated cut-off is given here; in the data, active means activity change below about -60%; inconclusive means no clear call, values can overlap the other calls; inactive means above about -39%.

experiment: qHTS Assay for inhibitors of the human cytomegalovirus (HCMV); details: HFF cells, HCMV-luciferase reporter, 72 h; at 57.5 µM; stronger effect = lower value
Summary of the method: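 Inhibition of viral replication was scored as loss of reporter luminescence in HFFs infected with HCMV-luciferase (MOI 1 PFU/cell) for 72 h; compounds tested at 2 doses, normalized to buffer and Salinomycin controls.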
On the % scale 0 is the no-effect control and ±100 the full control effect.

SMILES | activity change, negative = inhibition
O=C(Nc1ccc(N2CCOCC2)cc1)c1c(F)cccc1Cl | inconclusive: -45.2%
O=C(COc1ccc(F)cc1)NC1CC(=O)N(c2ccc3c(c2)OCCO3)C1 (stereo unspecified) | active: -108%
CC(C)(C)c1ccc(-n2ncc3c2CCCC3NC(=O)CN2CCCCC2=O)cc1 (stereo unspecified) | inconclusive: -58.4%
CN(C(=O)C1CCC(=O)N(CCCN2CCCC2=O)C1)C(C1CC1)C1CC1 (stereo unspecified) | inconclusive: -49.2%
Cc1ccc(C(=O)N(c2ccccc2)C2CC(C)N(C(=O)c3ccco3)c3ccccc32)cc1 (stereo unspecified) | inconclusive: -44.3%
O=[N+]([O-])c1ccc2c(c1)nc1n2CCN(c2ccccc2)C1 | inconclusive: -44.1%
O=S(=O)(c1ccccc1)c1nc(-c2ccccc2)oc1N1CCN(c2cccc(Cl)c2)CC1 | inactive: -2.06%
CCCC(C)C1(CC)C(=O)NC(=Nc2ccc(OC)cc2)NC1=O (stereo unspecified) | active: -60.1%
Cc1ccc(-c2csc(N(CCCN(C)C)C(=O)c3ccco3)n2)cc1 | inactive: -12.6%
O=C(CSc1nc(-c2cccs2)cc(C(F)(F)F)n1)NCc1ccco1 | active: -75.4%
Cc1cc(C)cc(NC(=O)c2ncn(-c3ccccc3)n2)c1 | inactive: 47.7%
O=C(COC(=O)c1ccc2c(c1)OCCO2)NC1CCCCC1 | inactive: 27.4%
Cc1ccc2cccc(OC(=O)N(C)c3ccccc3)c2n1 | inconclusive: -42.5%
CCc1ccc(NC(=O)N(Cc2cn(CC)c3ccccc23)C2CCCCC2)cc1 | active: -104%
CCOC(=O)C1(CCCc2ccccc2)CCN(C(=O)CSC)CC1 | inactive: 8.9%
COc1ccc(S(=O)(=O)N2CCC(C(=O)NCc3ccncc3)CC2)cc1C | inactive: -29.4%
O=[N+]([O-])c1ccc2c(c1)C(=NO)c1cc(F)ccc1-2 | active: -94.9%
Cc1ccc(OCC(=O)NNC(=O)c2ccccc2OCc2c(C)noc2C)cc1 | inconclusive: -51.6%
COc1cc(OC)cc(-c2cc3nc(C)c(CCC(=O)Nc4ccc(F)c(Cl)c4)c(C)n3n2)c1 | active: -61.7%
CCOCN(C(=O)Cn1c(CC(C)C)nc2ccccc21)c1c(C)cccc1CC | active: -61.5%
CCOc1ccccc1Nc1ncnc2c1c(-c1ccccc1)cn2-c1ccc(OC)cc1 | inconclusive: -43.5%
COc1ccc(S(=O)(=O)N2CCCC(C(=O)NCCC(C)C)C2)cc1 (stereo unspecified) | inactive: -12.1%

SMILES | activity change, negative = inhibition
Cn1cc(C(=O)N2CCN(c3cccc(Cl)c3)CC2)c(=O)c2cc(S(=O)(=O)N3CCOCC3)ccc21 | inconclusive: -49.6%
O=C1c2[nH]nc(-c3ccccc3O)c2C(c2ccc(Cl)cc2)N1CCc1ccccc1 (stereo unspecified) | active: -95.4%
Cc1c(C)n(-c2ccc(Cl)cc2)c2ncnc(N)c12 | inconclusive: -48.9%
CC1CCN(S(=O)(=O)N2CCC(C(=O)NCc3cccnc3)CC2)CC1 | inactive: 0%
COc1ccc(/C=C(/C#N)C(=O)Nc2cccc([N+](=O)[O-])c2)cc1C(=O)O | active: -102%
O=C(CCCc1c[nH]c2ccccc12)Nc1ncccc1O | active: -88.2%
C#CCN(Cc1ccco1)C(=O)c1cc(COc2ccc(F)cc2Cl)on1 | inconclusive: -53.3%
COc1ccc(-c2cc(C(=O)N3CCOCC3)no2)cc1 | inactive: 9.37%
COc1ccc2[nH]cc(CCNC(=O)c3cnn(-c4ccccc4Cl)c3C3CCN(C(=O)OC(C)(C)C)CC3)c2c1 | inactive: -25.9%
Cc1ccc(C(=O)O/N=C(\N)c2ccccn2)cc1C | inconclusive: -51.1%
O=C(O)c1ccc(C(=O)Nc2cccc3ccccc23)c(C(=O)O)c1 | inactive: 44.4%
CCOC(=O)CNC(=S)N1CC2C[C@@H](C1)Cn1c2cccc1=O | inconclusive: -41.1%
COCCn1c(SCC(=O)N2CCCC2)nc2c(c1=O)SCC2 | inconclusive: -48%
Cc1ccc(NC(=O)/C(=C/c2ccc([N+](=O)[O-])cc2)NC(=O)c2ccccc2)cc1 | inconclusive: -47.2%
COc1cccc2c1Oc1ncccc1N(C(=O)CCC(=O)NCc1ccccc1F)C2 | inconclusive: 0%
CCOc1cc(/C=C2/NC(=O)N(CC(=O)OC)C2=O)ccc1O | inconclusive: -57.6%
CCCOc1ccc(-c2nc(N3CCN(CC)CC3)c3ccccc3n2)cc1 | inconclusive: -42.8%
COc1ccc(CNC(=O)c2cccc(S(=O)(=O)N3CCN(c4ccc(F)cc4)CC3)c2)cc1 | inconclusive: -60%
CNc1ncnc(Sc2nc(N)nc3nc[nH]c23)c1[N+](=O)[O-] | active: -76.6%
COc1ccc(Cl)cc1C(=O)Nc1ccc(CN2CCCCC2)cc1 | inconclusive: -45.3%
Cc1cc(C)cc(NC(=O)CN2C(=O)CCc3cc(S(=O)(=O)N4CCCCC4)ccc32)c1 | inactive: 2.09%
CN(CC(=O)Nc1ccccc1Cl)C(=O)COC(=O)c1nc(Cl)c(Cl)c(Cl)c1Cl | inactive: 54.9%

SMILES | activity change, negative = inhibition
O=C(NCCc1ccccc1)c1ccc2c(c1)CCN2S(=O)(=O)c1ccccc1 | inconclusive: -46.5%
CCOC(=O)c1c(-c2ccccc2Cl)csc1NC(=O)c1cc(S(=O)(=O)N2CCOCC2)ccc1C | inconclusive: -47.5%
Cc1c(C(=O)NC2CCCC2)oc2ccccc12 | inactive: -2.44%
O=C(O)c1cc(-c2ccco2)nc2ccccc12 | inactive: 12.9%
COc1ccc(N2CCC[C@@H]2/C=C/C(=O)OCc2ccccc2)cc1 | inactive: 6.88%
CCOc1ccc(CNC(=O)C2CCCN(S(=O)(=O)N(CC)c3ccc(OCC)cc3)C2)cc1 (stereo unspecified) | inconclusive: -52.9%
COc1ccc(/C=C/C(=O)Nc2ccc(S(=O)(=O)N3CCOCC3)cc2)c(OC)c1 | inconclusive: 0%
COc1ccc(CCNC(=O)c2c(C)nn(-c3ccc(F)cc3)c2-n2cccc2)c(OC)c1OC | inconclusive: -42.9%
COc1ccc(C(=O)Nc2ccc(NC(=O)c3ccccc3)cc2)cc1S(=O)(=O)N1CCOCC1 | inconclusive: -56.1%
Cc1c(CCC(=O)NCCCn2ccnc2)c(=O)oc2cc3occ(C(C)(C)C)c3cc12 | inconclusive: -53.2%
CC(=O)Nc1ccc2nc(SCCOc3ccccc3)sc2c1 | active: -78.2%
CC1Sc2ccc(S(=O)(=O)CCC(=O)N3CCCCC3)cc2NC1=O (stereo unspecified) | inactive: -26.7%
CCOCCCNc1ncnc2c1[nH]c1ccccc12 | active: -62.5%
CCCc1c(C(=O)N/N=C/c2ccc(OCc3ccccc3)c(OC)c2)nnn1-c1nonc1N | inconclusive: -49%
COc1ccc(-c2[nH]ncc2CN(CC2CCC(=O)N2)C(C)C)cc1F (stereo unspecified) | inconclusive: -42.9%
CCOc1ccc(CNC(=O)C2CCN(Cc3cc4ccccc4n3Cc3ccccc3C)CC2)cc1 | inactive: 18.3%
CCN1CCC(CNCc2cn(-c3ccc(OC)cc3)nc2-c2ccccc2Cl)C1 (stereo unspecified) | active: -70.8%
O=C(Oc1cccc(C(=O)N2CCOCC2)c1)c1ccc(Br)cc1 | inactive: 13.8%
CCc1ccc(NC(=O)CCCn2nc(C)c3c(C)n(-c4ccccc4)nc3c2=O)cc1 | inconclusive: -57.6%
Cc1cccc(N2CCN(C(=O)c3ccc(N4CCCC4=O)cc3)CC2)c1C | inconclusive: -59.5%
O=C(c1ccc(Oc2ccc([N+](=O)[O-])cc2Cl)cc1)N1CCCC1 | inconclusive: -57.8%
O=C(Nc1nc2ccccc2s1)c1cc(-c2ccccc2)nn1-c1ccccc1 | active: -74.8%

SMILES | activity change, negative = inhibition
CCc1ccc(S(=O)(=O)N2c3ccc(C)cc3C3CN(C)CCC32)cc1 (stereo unspecified) | inconclusive: -48.1%
CC1(C(=O)Nc2cnc3ccccc3c2)CCN1Cc1ccc(-c2ccccc2)o1 (stereo unspecified) | inconclusive: -46%
CCCN1C(=O)C[C@H](S(=O)(=O)c2ccccc2)[C@H]1c1ccccc1 | inactive: -14.3%
CCCOc1cccc(C(=O)NC(=S)Nc2cccc(NC(=O)c3ccccc3Cl)c2)c1 | inconclusive: -53.3%
Cc1ccc(-c2csc(N3CCN(CCCn4c(-c5ccncc5)nc5ccccc54)CC3)n2)cc1 | inconclusive: -45.7%
CNC(=S)N/N=C1\CC(c2ccccc2)Oc2ccccc21 (stereo unspecified) | inconclusive: -54.6%
COc1ccc(CN2C(=O)C(C)Nc3ncnc(N4CCOCC4)c32)cc1 (stereo unspecified) | active: -64.6%
CC1CCc2cc(F)cc3c(O)c(C(=O)NCc4ccco4)c(=O)n1c23 (stereo unspecified) | inactive: -5.61%
O=C(NCC1CCOCC1)c1cccc2c(-c3cccnc3)coc12 | inactive: -26.8%
CCN(CC)C(=O)Cn1nc(-c2ccc(Cl)cc2)c2ccccc2c1=O | inconclusive: -49.4%
O=C(COC(=O)CCS(=O)(=O)c1ccc(Cl)cc1)NCCc1ccc(Cl)cc1Cl | inconclusive: -43.8%
O=C(NNc1ccc([N+](=O)[O-])cc1)c1ccccc1Cl | active: -86.3%
CC(C)c1ccc(Cc2cn3cc(-c4cc5ccccc5oc4=O)nc3s2)cc1 | active: -78.3%
O=C(c1cccc(-n2cccc2)c1)N1CCN(S(=O)(=O)c2ccccc2Br)CC1 | inactive: -16%
Cc1ccc(CSCC(=O)NCCc2ccccc2)cc1 | active: -100%
Cc1ccc(F)cc1NC(=O)N1CCCN(C(=O)OC(C)(C)C)CC1 | inactive: -17.1%
Cc1ccccc1C(=O)Nc1sc2c(c1C(=O)O)CCC(C(C)(C)C)C2 (stereo unspecified) | inconclusive: -49.4%
Cc1ccc(C2C(=O)N(C3CCCCCC3)CC(=O)N2C(C)C)cc1 (stereo unspecified) | inconclusive: -49.2%
CCOC(=O)N1CCN(c2nc(-c3ccc(OC)cc3)no2)CC1 | inconclusive: -58%
COc1ccc(CCNC(=O)c2cc(-c3cc(C)cc(C)c3O)n[nH]2)cc1OC | inconclusive: -49.1%

Four records drawn at random from those above, as already listed:
SMILES | activity change, negative = inhibition
COc1ccc(CN2C(=O)C(C)Nc3ncnc(N4CCOCC4)c32)cc1 (stereo unspecified) | active: -64.6%
CCCOc1cccc(C(=O)NC(=S)Nc2cccc(NC(=O)c3ccccc3Cl)c2)c1 | inconclusive: -53.3%
CCc1ccc(S(=O)(=O)N2c3ccc(C)cc3C3CN(C)CCC32)cc1 (stereo unspecified) | inconclusive: -48.1%
O=C(NNc1ccc([N+](=O)[O-])cc1)c1ccccc1Cl | active: -86.3%
